Laboratory results reported in PubChem BioAssay AID248 (DTP/NCI, 2004).
The list shows only some results of the screen, not a fair sample: it gathers tests that were run many times, whatever their T/C, doses with no T/C, and many T/C values between a quarter and a half above the control. Further doses and runs are listed elsewhere. T/C: endpoint of the treated group in % of that of the vehicle group. Some doses have a count of surviving animals in place of a T/C: the source files T/C as zero there, which appears to mark a toxic dose or a test without result, not a measured value. Some survivor counts are full or nearly so, which does not show that the dose was tolerated: the source hardly ever lists a survival T/C far under the control, and the zero likely stands for such cases as well. Survivors were counted at the toxicity check, usually on the fifth day, unless a day is given; later deaths do not show. Schedules are NCI's codes, taken here to give the interval after Q, in days (D) or hours (H), and the number of doses after X. Some schedules carry Z or #; the key to these is not given. Some entries were tested several times; the results are listed from low to high.

Test system: L1210 leukemia ip in BDF1 mice, survival T/C
Assay: NCI In Vivo Anticancer Drug Screen. Data for tumor model L1210 Leukemia (intraperitoneal) in B6D2F1 (BDF1) mice
Details: T/C endpoint: mean survival time, higher T/C = longer survival
[1] = dose: 400.0 mg/kg/injection, schedule: Q01DX009 (ip), vehicle: saline
[2] = dose: 400.0 mg/kg/injection, schedule: Q01DX001 (ip), vehicle: saline
[3] = dose: 25.0 mg/kg/injection, schedule: Q04DX002 (ip), vehicle: saline with Tween-80
[4] = dose: 50.0 mg/kg/injection, schedule: Q04DX002 (ip), vehicle: saline with Tween-80
[5] = dose: 400.0 mg/kg/injection, schedule: Q04DX003 (ip), vehicle: saline
[6] = dose: 400.0 mg/kg/injection, schedule: Q01DX001 (ip), vehicle: carboxymethylcellulose (CMC)
[7] = dose: 200.0 mg/kg/injection, schedule: Q04DX002 (ip), vehicle: Klucel (hydroxypropylcellulose) (HPC)
[8] = dose: 400.0 mg/kg/injection, schedule: Q04DX002 (ip), vehicle: Klucel (hydroxypropylcellulose) (HPC)
[9] = dose: 100.0 mg/kg/injection, schedule: Q04DX003 (ip), vehicle: saline

In the case of NC(CCl)=NC1CN2CCC1CC2 (stereo unspecified), the survivor count (dose: 100.0 mg/kg/injection, schedule: Q04DX002 (ip), vehicle: saline) is reported as 1 of 3, the survivor count (dose: 200.0 mg/kg/injection, schedule: Q04DX002 (ip), vehicle: saline) is reported as 1 of 3 and the survivor count (dose: 400.0 mg/kg/injection, schedule: Q04DX002 (ip), vehicle: saline) is reported as 1 of 3.
For CC1=NC(C(=O)O)C(=O)O1 (stereo unspecified), the survivor count [1] was 1 of 6.
COc1cc(CCN)ccc1OCc1ccccc1 was tested, and the survivor count (dose: 200.0 mg/kg/injection, schedule: Q04DX003 (ip), vehicle: Klucel (hydroxypropylcellulose) (HPC)) was 2 of 6, the survivor count (dose: 400.0 mg/kg/injection, schedule: Q01DX001 (ip), vehicle: Klucel (hydroxypropylcellulose) (HPC)) was 1 of 6 and the survivor count (dose: 400.0 mg/kg/injection, schedule: Q04DX003 (ip), vehicle: Klucel (hydroxypropylcellulose) (HPC)) was 0 of 6.
For CCCCC1(CC)C(=O)NC(=S)NC1=O, the survivor count [2] was 0 of 6.
With O=C(Nc1ccc(C2=NCCCN2)cc1)c1ccc(C(=O)Nc2ccc(C3=NCCCN3)cc2)c(Cl)c1 the survivor count (dose: 1.5 mg/kg/injection, schedule: Q01DX015 (ip), vehicle: water) was 3 of 6, the survivor count (dose: 3.0 mg/kg/injection, schedule: Q01DX015 (ip), vehicle: water) was 3 of 6 and the survivor count (dose: 6.0 mg/kg/injection, schedule: Q01DX015 (ip), vehicle: water) was 2 of 6. For the same compound, the survivor count (dose: 12.5 mg/kg/injection, schedule: Q01DX015 (ip), vehicle: water) was 0 of 6, the survivor count (dose: 25.0 mg/kg/injection, schedule: Q01DX015 (ip), vehicle: water) was 0 of 6 and the survivor count (dose: 50.0 mg/kg/injection, schedule: Q01DX015 (ip), vehicle: water) was 0 of 6. The survivor count (dose: 100.0 mg/kg/injection, schedule: Q01DX015 (ip), vehicle: water) was 0 of 6.
In the case of NC(=S)Nc1ccccc1, the survivor count (dose: 100.0 mg/kg/injection, schedule: Q01DX001 (ip), vehicle: saline) is reported as 0 of 6, the survivor count (dose: 200.0 mg/kg/injection, schedule: Q01DX001 (ip), vehicle: saline) is reported as 0 of 6 and the survivor count [2] is reported as 0 of 6.
For O=C1C=C(Nc2ccc([N+](=O)[O-])cc2)C(=O)c2ccccc21, the survivor count (dose: 150.0 mg/kg/injection, schedule: Q01DX001 (ip), vehicle: carboxymethylcellulose (CMC)) was 6 of 6.
Cc1cccc2c(C(=O)O)cc(-c3ccc(Cl)cc3)nc12 was tested, and the survivor count (dose: 100.0 mg/kg/injection, schedule: Q01DX009 (ip), vehicle: saline with Tween-80) was 5 of 6 and the survivor count (dose: 200.0 mg/kg/injection, schedule: Q01DX009 (ip), vehicle: saline with Tween-80) was 6 of 6.
For C[N+](C)(Cc1ccccc1)/N=C(\[O-])Cc1ccccc1, the survivor count [2] was 0 of 6.
With CC(C)C(N)(CCCN(C)C)c1cccc2ccccc12 (stereo unspecified) the survivor count [3] was 3 of 3 and the survivor count [4] was 3 of 3.
In the case of COc1cccc(N2C(=O)CC(=P(c3ccccc3)(c3ccccc3)c3ccccc3)C2=O)c1, the survivor count (dose: 300.0 mg/kg/injection, schedule: Q01DX001 (ip), vehicle: saline) is reported as 3 of 6.
With CCCCS.[Hg] the survivor count [3] was 3 of 3, the survivor count [4] was 0 of 3 and the survivor count (dose: 100.0 mg/kg/injection, schedule: Q04DX002 (ip), vehicle: saline with Tween-80) was 0 of 3. The survivor count (dose: 200.0 mg/kg/injection, schedule: Q04DX002 (ip), vehicle: saline with Tween-80) was 0 of 3 and the survivor count (dose: 400.0 mg/kg/injection, schedule: Q04DX002 (ip), vehicle: saline with Tween-80) was 0 of 3.
With C/C(=C\c1ccccc1Cl)[N+](=O)[O-] the survivor count (dose: 400.0 mg/kg/injection, schedule: Q01DX009 (ip), vehicle: Klucel (hydroxypropylcellulose) (HPC)) was 0 of 6.
With CSc1ncc(CO)c(N2CC2)n1 the survivor count (dose: 200.0 mg/kg/injection, schedule: Q01DX Z (ip), vehicle: methylcellulose (MC)) was 3 of 6.
For N#CCN1CCOCC1, the survivor count [1] was 0 of 6 and the survivor count [5] was 4 of 6.
With NNc1ccc2cccc(O)c2n1 the survivor count [6] was 4 of 4.
CCOc1ccc(C(/C(Cl)=N/O)C(Cl)(Cl)Cl)cc1 (stereo unspecified) was tested, and the survivor count (dose: 100.0 mg/kg/injection, schedule: Q04DX003 (ip), vehicle: acetone) was 0 of 6, the survivor count (dose: 200.0 mg/kg/injection, schedule: Q04DX003 (ip), vehicle: acetone) was 0 of 6 and the survivor count (dose: 400.0 mg/kg/injection, schedule: Q04DX003 (ip), vehicle: acetone) was 0 of 6.
In the case of COc1ccc(C#N)cc1OC, the survivor count (dose: 50.0 mg/kg/injection, schedule: Q04DX002 (ip), vehicle: Klucel (hydroxypropylcellulose) (HPC)) is reported as 0 of 3, the survivor count (dose: 100.0 mg/kg/injection, schedule: Q04DX002 (ip), vehicle: Klucel (hydroxypropylcellulose) (HPC)) is reported as 0 of 3, 1 of 3, 3 of 3 and the survivor count [7] is reported as 0 of 3. For the same compound, the survivor count [8] was 0 of 3 and 3 of 3.
For O=C1C2C(C(=O)N1c1ccc([N+](=O)[O-])cc1)C1c3ccccc3C2C2CCCCN21 (stereo unspecified), the survivor count (dose: 200.0 mg/kg/injection, schedule: Q01DX009 (ip), vehicle: saline) was 0 of 6.
In the case of Nc1ncnc2c1ncn2C1CCCCC1, the survivor count (dose: 136.0 mg/kg/injection, schedule: Q01DX Z (ip), vehicle: carboxymethylcellulose (CMC)) is reported as 6 of 6 and the survivor count (dose: 272.0 mg/kg/injection, schedule: Q01DX Z (oral), vehicle: carboxymethylcellulose (CMC)) is reported as 3 of 6.
For CCOC(=O)NCC[N+](C)(C)C, the survivor count [9] was 1 of 6, the survivor count (dose: 200.0 mg/kg/injection, schedule: Q04DX003 (ip), vehicle: saline) was 0 of 6 and the survivor count [5] was 0 of 6.
For CC1CN=C(c2ccc(N)cc2)S1 (stereo unspecified), the survivor count (dose: 350.0 mg/kg/injection, schedule: Q04DX003 (ip), vehicle: Klucel (hydroxypropylcellulose) (HPC)) was 0 of 6.
Fc1ccc(NC(=S)Nc2cc(Cl)cc(Cl)c2)cc1 was tested, and the survivor count (dose: 125.0 mg/kg/injection, schedule: Q01DX Z (ip), vehicle: carboxymethylcellulose (CMC)) was 3 of 6, the survivor count (dose: 200.0 mg/kg/injection, schedule: Q01DX Z (ip), vehicle: carboxymethylcellulose (CMC)) was 3 of 6 and the survivor count [6] was 0 of 4.
[Br][Hg][Br].c1ccc(N=P(c2ccccc2)(c2ccccc2)c2ccccc2)cc1 was tested, and the survivor count (dose: 75.0 mg/kg/injection, schedule: Q01DX001 (ip), vehicle: other) was 4 of 6, the survivor count (dose: 150.0 mg/kg/injection, schedule: Q01DX001 (ip), vehicle: other) was 1 of 6 and the survivor count (dose: 300.0 mg/kg/injection, schedule: Q01DX001 (ip), vehicle: other) was 0 of 6.
For CN(C)NCCN1CCN(CCCN2c3ccccc3Sc3ccc(C(F)(F)F)cc32)CC1, the survivor count (dose: 50.0 mg/kg/injection, schedule: Q04DX003 (ip), vehicle: saline) was 0 of 6 and the survivor count [9] was 0 of 6.
With COC(=O)c1ccc(N2C(=O)C=CC2=O)cc1 the survivor count (dose: 100.0 mg/kg/injection, schedule: Q04DX003 (ip), vehicle: saline with Tween-80) was 1 of 6, the survivor count (dose: 200.0 mg/kg/injection, schedule: Q04DX003 (ip), vehicle: saline with Tween-80) was 0 of 6 and the survivor count (dose: 400.0 mg/kg/injection, schedule: Q04DX003 (ip), vehicle: saline with Tween-80) was 0 of 6.
For C=CCNC(=S)NCc1ccc(Cl)cc1, the survivor count (dose: 100.0 mg/kg/injection, schedule: Q01DX009 (ip), vehicle: Klucel (hydroxypropylcellulose) (HPC)) was 3 of 6, the survivor count (dose: 150.0 mg/kg/injection, schedule: Q01DX009 (ip), vehicle: Klucel (hydroxypropylcellulose) (HPC)) was 0 of 6 and the survivor count [7] was 0 of 3. The survivor count (dose: 225.0 mg/kg/injection, schedule: Q01DX009 (ip), vehicle: Klucel (hydroxypropylcellulose) (HPC)) was 0 of 6, the survivor count (dose: 335.0 mg/kg/injection, schedule: Q01DX009 (ip), vehicle: Klucel (hydroxypropylcellulose) (HPC)) was 0 of 6 and the survivor count [8] was 0 of 3.
